Assay results reported in article PMC4466796.
These are yes or no findings as the source states them, for the method shown. In cells and extracts the contact can be indirect. Sequences can lack the tags named with a protein.

Amino acid sequences for entries named in this document (tags omitted). A change or cut given only in a name is not applied to a line headed by its entry.
UniProt P15056: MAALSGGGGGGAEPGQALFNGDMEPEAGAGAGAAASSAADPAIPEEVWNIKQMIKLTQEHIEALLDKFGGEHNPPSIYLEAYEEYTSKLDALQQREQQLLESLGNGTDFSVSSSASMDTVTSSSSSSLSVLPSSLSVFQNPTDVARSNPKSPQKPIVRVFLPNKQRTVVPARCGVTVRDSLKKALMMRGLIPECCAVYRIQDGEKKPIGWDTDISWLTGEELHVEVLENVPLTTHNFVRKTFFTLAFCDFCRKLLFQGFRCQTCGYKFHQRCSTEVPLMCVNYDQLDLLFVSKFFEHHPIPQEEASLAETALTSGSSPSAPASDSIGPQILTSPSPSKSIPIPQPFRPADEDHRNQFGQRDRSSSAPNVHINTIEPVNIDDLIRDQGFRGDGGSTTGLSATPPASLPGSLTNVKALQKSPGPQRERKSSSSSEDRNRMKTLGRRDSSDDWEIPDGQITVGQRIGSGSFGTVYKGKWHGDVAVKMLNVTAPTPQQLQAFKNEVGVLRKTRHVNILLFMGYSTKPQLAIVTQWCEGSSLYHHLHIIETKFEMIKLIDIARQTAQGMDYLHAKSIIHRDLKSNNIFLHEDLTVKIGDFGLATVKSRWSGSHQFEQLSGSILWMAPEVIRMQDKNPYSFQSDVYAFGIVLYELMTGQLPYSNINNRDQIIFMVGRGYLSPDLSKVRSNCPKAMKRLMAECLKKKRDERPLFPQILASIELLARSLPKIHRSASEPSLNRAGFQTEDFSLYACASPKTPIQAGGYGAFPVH

Molecular target: T1, Myc-EBR (UniProt Q9UJM3)
T1 sequence: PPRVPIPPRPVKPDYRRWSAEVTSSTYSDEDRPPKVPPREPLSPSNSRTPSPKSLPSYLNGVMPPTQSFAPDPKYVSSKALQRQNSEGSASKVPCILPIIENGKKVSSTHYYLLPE
Test: co-IP; Cos-1 co-transfected with FLAG-BRAF WT or V600E and Myc-MIG-6 or Myc-EBR, serum starved (reproducible after FBS incubation); reciprocal anti-Myc IP (1:500); blots for BRAF and pEGFR (Y1173)

Row | binding | Substance
1 | no binding | FLAG-BRAF WT (from UniProt P15056 1-766)
2 | no binding | FLAG-BRAF V600E (from UniProt P15056 1-766)
